Results published in paper PMC13289029.
Results are given in words; binding and its absence hold for the method and conditions named. Binding seen in cells or lysates may run through a third protein. These calls come from enrichment with a bait or labelling near it, and not all partners need be listed.

Molecular target: DacA-FLAG (Streptococcus mutans UA159)
Assay: affinity purification with mass spectrometry; crosslinked; cells in PBS with 1% formaldehyde 20 min at room temperature, quenched with 0.125 M glycine, then lysate on anti-FLAG M2 affinity gel 3 h at 4°C, FLAG peptide elution; UA159 as no-FLAG control; hits at least twofold enriched with spectral counts >10

Row | Binder | binding
1 | SMU_502 (protein, UniProt Q8DVI6 1-566) MASKEKWTELFEKVIGRKPTPQEFLEGKKGFFDLKEIKKIAGVDKADDLQETSSDIKQAILGNSITAVKPDNESSKEETKSTDKPVSTEVDKSPKQLWVEAFEKTIGRQPTPEEFISGRNQDFDLAKISQLVEKESVSKTSNLAKAPFTKGKKILITLGLVCLLALVVGYIYGNQYFSREAVAQRYLKVANSNFDKALEFEVWSDTEKPIKKSELTYRNSKETRTVTMDKLTSDASQMKKVGNKFLIFPDWRVAIKPASAKISINTKGLELFINDKRVTKADSDSFSQTISRLYPGTYNFVAKGNISGQKVEVSSEEKLTNHSTINLNVKYLSFKVNSNLTDGDLYVGSRKIGTLKDGKYNVTKLAVTDTSKIYVQKSFSGKATLKSEVQSIEDVYDGDTISLDAKGVLDRDTADSLITQAYYKLDSYASSHTTPDDLDDIFTSGNHNNFYLDVKNTIDTNTTNAKNRSADSINFSDVDVTKVTQTSPTTYAVEFTVVYDFYYSYSSEHKSSGSITQKLSWSALVEYVGDNKKNSSDSYSYNSYEDYRITSDNGKSSVLSTKNTVD | binds
2 | FtsK (protein, UniProt Q8DSX7 1-787) MAKTKNKRKGRKTRRPTKAELEKQRAIKRMVFALFMAFVLFFAIFKLGRVGVTVYNIIRLMVGSLAYPFIFAALIYLFATKWLKKHDGLVGGFVITMLGMLLEWQAYLFSLATMKDQSVIKGTLVIVFSDLSKFRVANFAGGGFLGALLYMPVAFLFSNIGSFLIGGLFLLLGLFLMSPWDVYDVMNFFKDSYAKWQVKRQENREKRFAQKEEARLLAQQAVQEAQESATFDHGLNAAIDLETGEVLDQAQTIDLDDFDGQVHKEPEIIGYQSDPEGEALEAEVPAAEQTSQLPKEEDMSDESLEVDFTPKTTLHYKLPGIDLFAKDKPKNQSKEKRLVRDNIKILEETFTSFGIKANVERAEIGPSVTKYEVKPAVGVRVNRISNLADDLALALAAQDVRIEAPIPGKSLVGIEVPNSEVATVTFRELWEQAKASPDKLLEVPLGKAVNGSVRSFDLAKMPHILVAGSTGSGKSVAVNGIIASILMKARPDQIKFMMIDPKMVELSVYNDIPHLLIPVVTNPRKASKALQKVVDEMENRYELFSHFGVRNIAGYNAKVEEFNRHSETKHIPLPLLVVIVDELADLMMVASKEVEDAIIRLGQKARAAGIHMILATQRPSVDVISGLIKANVPSRIAFAVSSGTDSRTILDENGAEKLLGRGDMLFKPIDENHPVRLQGSFISDDDVERIVSFIKEQAEADYDESFDPGEVSEDDNSNGNGGNSEGDPLFEDAKALVLETQKASASMLQRRLSVGFNRATRLMEELEEAGVIGPAEGTKPRKVLQSN | binds
3 | SMU_1412c (protein, UniProt Q8DTD8 1-842) MLELKHITKVYETAGIKRMALENVSVNFRANEFVAVLGQSGSGKTTLLNIIGGLDQYTTGDLLINGKSTKDFKDKDWDSYRNNTIGFVFQSYNLISHQTALANVELALTLSGVSKAERRKRALDALKRVGLEDEINKKPNQMSGGQMQRVAIARALVNNPDILLADEPTGALDSETSLQIMDLLKEIAQERLVIMVTHNPDLAEKYSNRIIKVLDGHIINDSNPYTDDEIRKATVDFKKTKMSFTTALSLSFNNLLTKKGRTLLTAFAGSIGIIGIALILSLSNGVQKYIAKTQEDTLVAYPLSIEKSSNKNFIGLLAANSNENKKSDKKKTNKKIGTNSILKNMISTQVVDNDLASFKTYIKKHQKKFAAVTKDIQYSYKITPRIYQSDTSKGVKAVNPNTLSKDLKDTSTSIQTVVSNLDIWQELSSNEKMLSSQYQVISGHLPKQYNEVVLMADENNKIDDYVLYSLGIKDAKQLNSKTIKKVKASSYHYKDLIGRTYKLVINSDLYQKEGNAWIDRSDNDAYMKQVINAAENIKIVGIVKPQEGTTSESSSAGVGYSHDLTDYLAKKIKSSTIAKEQLANKKLNVFTGQSFSSGNKTFSSDNLSVQQQASMASMSAEELADYVNRYNENANATYKDNLEKIGIIDNNNPETIHFYASSFKDKEALKDLISDYNKKVKKDKHKSRVIRYTDTVGLMMSSVTTMINAVTYILIGFVAISLIVSSIMIGIITYISVLERTKEIGVLRAMGASKRDVTRIFTAETIIEGAIAGVLGILITLLLNIAITLIVKNWLNINHISSLPIWSAIVLIAISIVLTVFAGILPSRVAAKKDPVEALRTE | binds
4 | OpuCa (protein, UniProt Q8DRU8 1-383) MDKDPVIEFKEVNKIYGDNVAVKHINLKIMAGEFVCLIGTSGSGKTTILRMINRMLKPSNGKIFIKGEEISDLNPVQLRRKIGYVIQNIGLMPHMTIYENITLVPKLLKWSEDKKKAKAKELIKLVELPEDFLDRYPYELSGGQQQRIGVVRALAADQDIILMDEPFGALDPITREGLQDLVKSLQEKTGKTIVLVTHDMDEALKLATKIVVMDKGHMVQQANPTELLRHPATAFVKKMIGEDRLIQARADVTPVKNIMLKDPVSIAPDKSLNDAISLMRQKRVDSLLVTDKDNKLLGMIDVESLNNNYKQNLVVADILNKISFYLEEDQLLRDTAHRILKRGLKYVPVIDKEWHLKGIVTRSSLVDMLYDIIWGNQDTEETL | binds
5 | PknB (protein, UniProt Q8DVK1 1-616) MIQIGKLFAGRYRILQSIGRGGMADVYLANDLILDNEEVAIKVLRTNYQTDQVAVTRFQREARAMAELNHPNIVAIRDIGEEDGQQFLAMEYVDGADLKKYIQDHAPLSNAEVIRIMKEVLSAMTLAHQKGIIHRDLKPQNVLLTKDGTAKVTDFGIAVAFAETSLTQTNSMLGSVHYLSPEQARGSKATVQSDIYAMGIMLFEMLTGHIPYDGDSAVTIALQHFQKPLPSIIAENKNVPQALENVVIKATAKRLTDRYHSTQEMLQDLRTSLQPNRSRERKLVFSDASDTKPLPKLEQAAANSLAAQSLKNKTSNQDKVDHKSKPKTKPQPKPKKKRHFLARFFKIFFILVAIGIAVLTYLVLTKPSTVSVPDVSGDKLSTAKMIIRKSGLKVGDVQKIEDDNVGAGKVVRTNPSAGSKKREGSSVDIFVASAKGFKMEDYTGQDYKDAIDNLTNNYGVSRDSIVLKEVSSDDYSGGTVIGQSPKPGKTYHPSSDKKITLKVVKVTMPNLKNSTYEEAVSTLTAMGISSSRIKAYDASDYSSEISSPSSSSLVVGQSPYYGNTVSLSSNDDIILYVSTSGGSHSGSSSSESSNSEGTTSSEASTDSSSSATTTSH | binds
6 | EzrA (protein, UniProt Q8DTQ3 1-574) MSSGIVLLIVAIVLVVIIAYLIAIIIRKRNDSLITKLEERKQNLFDLPVNDEIEEVKKLHLIGQSQTTFREWNQKWVDLSLNSFSDIENHIFEAENLNDTFNFIRAHSQINNIESQLNLAEEDIKAIREALAVLKEQEEKNSARVLHALEMYESLQASIEEGDSNFGITMPEIEKQLKNIEAEFSQFVTLNSSGDPVEASEILDRAEEHTIALGQMTEKIPAIVAKLEDDFPDQLDDLESGYRRLLEENYHFPEKNIEERFQEVREAIGNNSNELVSLDLDKAESENEAIQEKIDSLYDIFEREIRAHKNIVKSKKIIPAYLEHAKKNNEQLEAEIERLNHRYILNEKEELNVRDFNEEIASVEKDVLPIIENFDTQEKPFSVLEDKFDRAIKKLDLVEEGQLDVFNSLKNIENVEKTARQKLDSYINRLHAIKRFMEKRNLPGIPQDFLSVFFTTSAQLEALMDELNRARIHIETVNRMTEAATAAVENLEETAYRVVQNATLTEQLLQYSNRYRSFEPSVQESFDIALKLFETDYDYQGSFDEISYSLETVEPGVTDRFVSSYEKTRETIRF | binds
7 | MltG (protein, UniProt Q8DSP6 1-614) MKKAKQSRKNRDISQVKKGNVAKDHQKYSDSAVQKQDKEETRTVMPIPEGNITDKDVDNVLANLDEIFAPGQLNHSDQINEKENSQQITGKQSSSLKTGSATQETETFQSKESLTLPNKKTSENKVSDVLEVKVKKTNNWVDDGEAENWQLPDLTEKLTNNNDEETKELPLSSLAEKTNSESEMKHSVKETEELLKQEKKLSSKYDKTKSQTKASSKEKDVTANLNQKRQQHYKKTNRLAKKISTVLITFILILLLGTGLFGYYYVSSAIKPLDAHSTKYIQVEIPSGSGNRMIGKILEKAGVIKNATVFNFYTKFRNYSNLQSGYYNLQKSMSLDDIAKTLKNGGTTTPQAPVLGKVVIPEGYTIKQISKAITSNANTKKKTDKTPFTAKEFLKTVKDKAFIEKMVKKYPRLLGSLPDASKVTYQLEGYLFPATYSYGEKTSIEDLIDNMLAAMDTNMQSYYDTIESQGKTVNDILTLASLVEKEGATDDDRKKIAGIFYNRINQDMPLQSNIAILYAMGKLGEKTSLKEDATINTKIDSPYNVYTNKGLMPGAVDNPSLSAIKAAVEPESTDDLYFVADVTTGEVHYAKTYEEHSANVEKYVNKKVASSSDS | binds
8 | DivIVA (protein, UniProt Q8DVD4 1-271) MAITALEIKDKTFGTKMFGYNTQEVEEFLDIVVDDYEELVRTNREKDNRIKELEDKLGYFDEMKESLSQSVILAQETAEKVKLSANTESTNILNKATYESQQLVDAAKSKANQILRDATDEAKRIAVETEELKRQSRVFHQHLLSVVEGQLTLANSPEWTELLQPTAVYLQNSDAAFKEVVEQVLGEHVPDAADTEPIEVTRQFTPEEMEELHRRVSESNKELEETKAGQSTVDDQQPLIIEAADETKVNESADEQPNLNETQTFKLNINE | binds
9 | KhpB (protein, UniProt Q8DVX2 1-322) MVLFTGKTVEEAIESGLKQMGISRMKAHIRVISREKKGFLGFGRKLARVEIEGINEKTAHKADQKAVRGVPDSINKQNAPVSSSAEDTVALNHLSKTIKKLEKEDGQPLDKEIKEQVLEHKISAQEMLEQNALTTKTSAATASSEAFNQKGKQTFEDFVADAFDEVDNGADIAVASKEVSQYIQKIIYEMDLETSIETSHNRRQINLQIETPEAGRVIGYHGKVLKSLQLLAQNFLHDHYSKHFSVTLNVHDYMEHRTKILIDFAHKIAKRVLDSGKAYQMDPMSNSERKVIHKTITGIEGVESYSEGNDPNRYVVIASKGN | binds
10 | FtsA (protein, UniProt Q8DVE0 1-453) MARDGFFTGLDIGTSSIKVLVAEFINGSMNVIGVSNVKSSGVKDGIIIDIDTAAEAIKSAIKEAEEKAGMSISKVNVGLPANLLQIEPTQGMIPVPSESKEIKDEDVDSVVRSALTKSITPEREVISLIPEEFIVDGFQGIRDPRGMMGIRLEMRGLIYTGPSTILHNLRKTVERAGIEVENIIISPLALTKSVLNEGEREFGATVIDMGGGQTTVASMRAQELQFTNTYAEGGDYVTKDISKVLKTSHQVAEALKFNFGEANVAEASSTETVQVEVVGERNPVEITERYLSEIISARVRHLLDRIKQDLERGRLLDLPGGIVIVGGAAIMPGVVEIAQEIFGFNVKLHVPNQVGIRNPMFANIISIVEYVGTLTEVDILAQGAVSGDEKLRRKPIDIKPSGVAPKTRSFAQPQESTTLESQLEQLPPQQKEANEPKQKVGDRLRGIFGSMFD | binds
